Reference: the supplement of paper PMC4371806
In all, about 1,600 compounds were measured (“plate-normalized OD600 growth (mean of duplicates)”: median about 0.31, lowest 2% from about 0.23 on). Some of the results follow.

Tested on: Escherichia coli BW25113
Test: plate-normalized OD600 growth (mean of duplicates) (OD600 (normalized)); higher = more growth (less inhibition)
Settings: 10 µM
Procedure: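 E. coli BW25113 in LB (100 µl, 96-well, no shaking) was exposed to 10 µM of each compound (here the ChemBridge subset of a ~30,000-member library) and grown at 37°C for 24 h or 15°C for 48 h, in duplicate. Growth was read as OD600 and the duplicate ODs were normalized across screening plates to correct plate-to-plate variation.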

SMILES	plate-normalized OD600 growth (temperature: 15°C, 48 h)	plate-normalized OD600 growth (temperature: 37°C, 24 h)
CCN(CC)C(=O)C1CCCN(Cc2ccc(OC)c(C)c2)C1 (configuration not stated)	0.258	0.635
NCCCNc1ccc(Cl)cc1[N+](=O)[O-]	0.248	0.62
Cc1ccc(C2C(C#N)=C(N)Oc3n[nH]c(C)c32)s1 (configuration not stated)	0.246	0.658
COc1ccccc1N1Cc2ccc(OC)c(OC)c2C1=O	0.256	0.635
Fc1ccccc1N1CCN(Cc2ccco2)CC1	0.247	0.603
CC(C)(C)c1ccccc1OCCCCSC#N	0.209	0.619
COc1ccc(CC(=O)Nc2ccccc2)cc1OC	0.229	0.601
COc1ccc(-c2csc(N)n2)cc1Br	0.26	0.647
O=C(Nc1cccc(O)c1)C(Cc1ccc([N+](=O)[O-])cc1)N1C(=O)c2ccccc2C1=O (configuration not stated)	0.254	0.637
Nc1nonc1C(=NCc1ccccc1)NO	0.275	0.651
CC(=O)NCc1cccc(CNC(C)=O)n1	0.248	0.626
COc1ccc(CC(=O)Nc2cc(C)cc(C)c2)cc1	0.265	0.635
CC(=O)c1c(C(C)=O)c(C)n(-c2ccc(C)c(N)c2)c1C	0.254	0.612
CC1CCCC(C)N1C(=O)c1ccc(Br)cc1 (configuration not stated)	0.25	0.617
COc1cccc(OC)c1C(=O)Nc1ccccc1C	0.246	0.627
CC1(C)CC(=O)C(C(N)=NC(=O)c2ccccc2)=C(O)C1	0.23	0.614
CC(c1ccccc1)N1CCC(=O)C2=C1CCCC2 (configuration not stated)	0.241	0.604
Cc1nn2c3ccccc3n(C)c2c1C=O	0.236	0.62
C=CCSc1nc2c(cc1C#N)CCC2	0.25	0.607
N#CC1=C(N)NC(SCc2ccccc2)=C(C#N)C12CCCCC2	0.245	0.603
Cc1onc(-c2ccccc2Cl)c1C(=O)NCc1ccc2c(c1)OCO2	0.261	0.619
c1ccc(-c2nnc(N3CCOCC3)nc2-c2ccccc2)cc1	0.236	0.606
COc1ccc(S(=O)(=O)Nc2cc(C)ccn2)cc1	0.245	0.602
COc1ccc2[nH]c3c(c2c1)CCn1c-3nc2sc3c(c2c1=N)CCCC3	0.254	0.607

Sorted by molecular weight (largest number first): part of the list above
SMILES	plate-normalized OD600 growth (temperature: 15°C, 48 h)	plate-normalized OD600 growth (temperature: 37°C, 24 h)
O=C(Nc1cccc(O)c1)C(Cc1ccc([N+](=O)[O-])cc1)N1C(=O)c2ccccc2C1=O (configuration not stated)	0.254	0.637
Cc1ccc(C2C(C#N)=C(N)Oc3n[nH]c(C)c32)s1 (configuration not stated)	0.246	0.658
CC(C)(C)c1ccccc1OCCCCSC#N	0.209	0.619
CC(=O)NCc1cccc(CNC(C)=O)n1	0.248	0.626

(continued)

SMILES	plate-normalized OD600 growth (temperature: 15°C, 48 h)	plate-normalized OD600 growth (temperature: 37°C, 24 h)
CCOc1ccc(NC(=O)c2cccnc2)cc1	0.271	0.623
Cc1nc2c(cnn2-c2ccccc2)c(=O)[nH]1	0.243	0.613
CCCc1noc2c1C(=O)CC(C)(C)C2	0.261	0.622
CSC1=C(C#N)C(c2ccc(OCc3ccccc3)cc2)CC(=O)N1 (configuration not stated)	0.243	0.628
Cc1cccc(C)c1N(CC(=O)O)S(C)(=O)=O	0.243	0.616
O=c1[nH][nH]c(=O)c2cc([N+](=O)[O-])ccc12	0.258	0.634
O=C(NC1CCN(Cc2ccccc2)CC1)c1sc2ccccc2c1Cl	0.243	0.598
CC(=O)c1c(C)n([O-])c2ccccc2[n+]1=O	0.262	0.639
C=CCc1c(C)[nH]c2ccccc2c1=O	0.24	0.601
c1ccc(CCCN2CCOCC2)cc1	0.251	0.615
CC(=O)Nc1cccc(NC(=O)Nc2cccc(Cl)c2)c1	0.236	0.585
Cc1ncn(C23CC4CC(CC(C4)C2)C3)n1	0.242	0.622
OC1CCN(Cc2ccc(Br)s2)CC1	0.251	0.603
CN(C)CCN(C)Cc1ccccc1Br	0.249	0.611
COc1ccc(CN2CCN(c3ccc([N+](=O)[O-])cc3)CC2)c(OC)c1	0.252	0.593
CN1CCN(C(=O)CC(c2ccccc2)c2ccccc2)CC1	0.253	0.62
O=c1[nH]c(/C=C/c2ccccc2F)nc2ccccc12	0.243	0.603
Cc1cc(C)c(OCCN2CCCCC2)c(C)c1	0.254	0.638
CC1CCC(N2CCN(c3ncccn3)CC2)C1 (configuration not stated)	0.234	0.61
COc1ccccc1-c1nc(-c2ccccc2Cl)no1	0.256	0.648
COc1ccc(CCN2C(=O)CN(Cc3ccccc3)CC2=O)cc1OC	0.263	0.635
Cc1cc(Nc2ccc(O)cc2)c2cccc(C)c2n1	0.246	0.64
CC1=C(C#N)C(c2cccnc2)C2=C(CC(c3ccc(Cl)cc3)CC2=O)N1 (configuration not stated)	0.225	0.623
O=C(Nc1c(Cl)cccc1Cl)c1cccs1	0.243	0.609

SMILES	plate-normalized OD600 growth (temperature: 15°C, 48 h)	plate-normalized OD600 growth (temperature: 37°C, 24 h)
CC(C)(C)c1cc(C(C)(C)C)cc(S(N)(=O)=O)c1	0.256	0.623
CC1(C)Cc2ccccc2C(=NCCC(=O)O)N1	0.248	0.61
Cc1ccc2c(N)c(C(N)=O)sc2n1	0.241	0.615
Cc1ccc(NC(=O)c2cc(-c3ccccc3)n[nH]2)cc1	0.251	0.603
c1ccc(CN2CCc3ccccc3C2)nc1	0.242	0.584
CC(C)(C)S(=O)(=O)c1ccc(S(=O)(=O)C(C)(C)C)s1	0.259	0.617
COc1cc(OC)c(CN2CCN(c3ccc([N+](=O)[O-])cc3)CC2)cc1Br	0.234	0.599
COc1ccc(-c2c(C#N)c(N)nc3c2CCC3)cc1	0.248	0.639
Cc1cc(NC(=O)CN(c2ccccc2F)S(C)(=O)=O)ccc1Br	0.241	0.588
C1CCCC(NCCN2CCCCC2)CCC1	0.234	0.588
CCN(CC)C(=O)c1ccc(C(O)C(Cl)(Cl)Cl)o1 (configuration not stated)	0.233	0.613
O=[N+]([O-])c1ccc(CN2CCCCCCC2)cc1	0.255	0.607
COc1ccccc1C=C(C#N)c1nc(-c2ccc3c(c2)OCO3)cs1	0.231	0.598
CCCSc1nc(C)cc(COC)c1C#N	0.229	0.637
CCOc1cc(/C=C(\C#N)c2nc(-c3ccc(OC)cc3)cs2)ccc1O	0.262	0.615
CSc1ccc(CN(C)C2CCN(C)CC2)cc1	0.255	0.621
COc1cc(C(=O)n2c(C)nc3ccccc32)cc(OC)c1OC	0.246	0.616
O=C(COc1ccccc1)Nc1ccccc1Cl	0.279	0.622
O=C(c1ccc(-c2ccccc2)cc1)N1CCCC1	0.241	0.596
CC(=O)Nc1ccc(NCCC#N)cc1	0.231	0.631
Cc1nc(C)c(-c2cc(C)c3c(C)nc(C)nc3n2)c(N)n1	0.252	0.617
CCOc1ccc(Br)cc1/C=C(\C#N)c1nc2ccccc2[nH]1	0.255	0.657
Nc1ccc(Cl)cc1SCC(=O)O	0.242	0.599
